Reference: paper PMC9323718
Results are given in words; binding and its absence hold for the method and conditions named. In cells and extracts the contact can be indirect. Some results given as binding are weak or reduced against the parent protein; the word gives no strength.

By UniProt entry, the sequences of proteins in these tests, tags left out.
UniProt P48995: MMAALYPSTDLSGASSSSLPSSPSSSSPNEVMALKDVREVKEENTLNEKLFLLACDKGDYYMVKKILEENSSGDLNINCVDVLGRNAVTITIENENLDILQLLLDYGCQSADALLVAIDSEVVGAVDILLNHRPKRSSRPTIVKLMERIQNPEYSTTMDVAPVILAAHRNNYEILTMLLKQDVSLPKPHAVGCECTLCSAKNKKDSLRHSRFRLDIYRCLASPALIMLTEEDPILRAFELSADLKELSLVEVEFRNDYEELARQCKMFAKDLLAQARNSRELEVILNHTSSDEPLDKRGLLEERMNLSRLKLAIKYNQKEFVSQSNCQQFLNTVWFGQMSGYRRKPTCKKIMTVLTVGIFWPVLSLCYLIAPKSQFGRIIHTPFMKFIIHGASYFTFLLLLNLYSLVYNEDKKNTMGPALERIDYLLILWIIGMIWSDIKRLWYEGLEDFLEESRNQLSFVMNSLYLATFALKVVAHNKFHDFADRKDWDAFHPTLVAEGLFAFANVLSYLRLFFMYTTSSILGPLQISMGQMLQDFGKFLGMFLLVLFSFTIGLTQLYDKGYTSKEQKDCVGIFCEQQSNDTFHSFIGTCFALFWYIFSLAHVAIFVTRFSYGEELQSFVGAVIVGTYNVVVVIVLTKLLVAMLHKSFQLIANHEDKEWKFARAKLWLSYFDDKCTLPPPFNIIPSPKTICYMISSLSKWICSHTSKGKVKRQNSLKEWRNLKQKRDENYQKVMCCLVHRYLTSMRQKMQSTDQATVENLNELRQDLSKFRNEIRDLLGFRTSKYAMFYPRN
UniProt P27986: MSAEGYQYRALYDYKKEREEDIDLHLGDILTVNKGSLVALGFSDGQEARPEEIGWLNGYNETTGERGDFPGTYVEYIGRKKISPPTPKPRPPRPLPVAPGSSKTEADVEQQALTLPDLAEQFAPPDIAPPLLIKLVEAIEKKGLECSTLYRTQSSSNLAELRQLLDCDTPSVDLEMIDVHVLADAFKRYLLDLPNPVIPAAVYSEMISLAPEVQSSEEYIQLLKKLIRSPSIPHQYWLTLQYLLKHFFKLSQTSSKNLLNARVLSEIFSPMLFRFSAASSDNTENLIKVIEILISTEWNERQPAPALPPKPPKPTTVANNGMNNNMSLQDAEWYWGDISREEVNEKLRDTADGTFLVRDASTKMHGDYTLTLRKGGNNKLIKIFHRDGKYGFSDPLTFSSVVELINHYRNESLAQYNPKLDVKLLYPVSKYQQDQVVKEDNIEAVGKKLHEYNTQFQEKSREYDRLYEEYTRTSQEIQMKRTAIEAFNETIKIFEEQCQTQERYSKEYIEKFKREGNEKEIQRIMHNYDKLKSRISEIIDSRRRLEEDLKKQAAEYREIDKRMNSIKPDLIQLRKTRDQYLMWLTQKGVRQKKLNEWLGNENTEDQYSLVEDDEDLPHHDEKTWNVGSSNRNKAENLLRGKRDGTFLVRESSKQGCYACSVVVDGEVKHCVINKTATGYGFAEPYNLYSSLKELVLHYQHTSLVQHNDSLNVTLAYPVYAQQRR

Target: transient receptor canonical ion channel (TRPC1) (human (endogenous in PANC-1)) (UniProt P48995)
Assay: co-IP; 500 µg protein of non-transfected or siCTRL/siTRPC1-transfected PANC-1 cells; 1 µg TRPC1 antibody or PI3K p85α antibody on Protein A magnetic beads; lysate rotated 2 h at room temperature; Western blot; co-precipitate reduced after TRPC1 knock-down

PI3K p85α subunit (from UniProt P27986 1-724)
binding: binds
